Values from PubChem BioAssay AID504786 (Drosophila RNAi Screening Center, 2011)
The deposit covers about 21,000 reagents; below is an unselected part of those with a known target gene and a result. 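Primary screen; positive scores mean lost reporter signal, so the sign may be inverted from the usual convention.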 A plus sign joins genes that one reagent is predicted to hit. Reagent sequences are not shown.

- Test: 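Positive regulators of HIF-driven reporter output in Drosophila cells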 (primary screen)
- System: Drosophila S2 cells with a stable HIF luciferase reporter
- Knock-down reagent: long dsRNA against Drosophila genes, about 0.2 µg dsRNA per well of a 384-well plate
- Duration: three days of knock-down, then 20 h of DFO before reading
- Conditions: desferrioxamine (DFO) at 100 µM, an iron chelator that mimics hypoxia, for 20 h
- Read-out: 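HIF reporter luminescence in cells given 100 µM DFO for 20 h, using the mouse ldh-a hypoxia-response element, scored as per-plate z-scores; higher means greater loss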
- Scale: z-score: higher = stronger loss of HIF reporter signal

Grp170 [DRSC18524] — z-score, replicate 1 = -0.4; z-score, replicate 2 = -0.6
Rev1 [DRSC08264] — z-score, replicate 1 = 0; z-score, replicate 2 = 0.1
CG17186 [DRSC15180] — z-score, replicate 1 = -0.4; z-score, replicate 2 = -0.2
CG13587 [DRSC04223] — z-score, replicate 1 = -0.2; z-score, replicate 2 = -0.4
CG12849 [DRSC04129] — z-score, replicate 1 = -0.1; z-score, replicate 2 = -0.4
Fur2 [DRSC19817] — z-score, replicate 1 = -0.2; z-score, replicate 2 = 0.7
CG7099 [DRSC03006] — z-score, replicate 1 = -0.3; z-score, replicate 2 = -0.3
Fcp1 [DRSC04121] — z-score, replicate 1 = -0.3; z-score, replicate 2 = -0.6
Pdss2 [DRSC11625] — z-score, replicate 1 = -0.3; z-score, replicate 2 = -0.3
CG13016 [DRSC06271] — z-score, replicate 1 = -0.2; z-score, replicate 2 = -0.2
Aps [DRSC10629] — z-score, replicate 1 = -0.3; z-score, replicate 2 = -0.3
CG31522 [DRSC12005] — z-score, replicate 1 = -0.4; z-score, replicate 2 = 0.6
wor [DRSC03637] — z-score, replicate 1 = -0.3; z-score, replicate 2 = -0.4
Ufl1 [DRSC12527] — z-score, replicate 1 = -0.3; z-score, replicate 2 = -0.2
CG12164 [DRSC06115] — z-score, replicate 1 = -0.3; z-score, replicate 2 = -0.3
Dgkepsilon [DRSC07399] — z-score, replicate 1 = -0.4; z-score, replicate 2 = -0.4
Rpn8 [DRSC04624] — z-score, replicate 1 = 5.6; z-score, replicate 2 = 6.5
CG18635 [DRSC06780] — z-score, replicate 1 = -0.9; z-score, replicate 2 = -0.5
Spn75F [DRSC09589] — z-score, replicate 1 = -0.2; z-score, replicate 2 = 0.6
mRpS17 [DRSC04463] — z-score, replicate 1 = 1; z-score, replicate 2 = 1.2
Su(var)3-3 [DRSC10250] — z-score, replicate 1 = -0.2; z-score, replicate 2 = 0.1
Dhc36C [DRSC03315] — z-score, replicate 1 = -0.2; z-score, replicate 2 = -0.4
TTLL15 [DRSC15543] — z-score, replicate 1 = 0; z-score, replicate 2 = 0
ATP7 [DRSC19819] — z-score, replicate 1 = -0.4; z-score, replicate 2 = -0.7
NimC1 [DRSC01879] — z-score, replicate 1 = -0.4; z-score, replicate 2 = -0.3
Su(var)3-7 [DRSC16872] — z-score, replicate 1 = -0.2; z-score, replicate 2 = -0.1
CG31897 [DRSC01020] — z-score, replicate 1 = -0.5; z-score, replicate 2 = -0.3
Hr96 [DRSC16707] — z-score, replicate 1 = -0.3; z-score, replicate 2 = -0.4
CG15764 [DRSC18070] — z-score, replicate 1 = -0.3; z-score, replicate 2 = -0.7
CG3213 [DRSC00576] — z-score, replicate 1 = 1.8; z-score, replicate 2 = -0.4
CG12123 [DRSC17818] — z-score, replicate 1 = -0.4; z-score, replicate 2 = -0.1
Mur18B [DRSC20063] — z-score, replicate 1 = -0.2; z-score, replicate 2 = -0.3
CG15023 [DRSC08477] — z-score, replicate 1 = -0.4; z-score, replicate 2 = -0.7
2mit [DRSC14194] — z-score, replicate 1 = -0.1; z-score, replicate 2 = -0.1
2mit [DRSC15224] — z-score, replicate 1 = -0.1; z-score, replicate 2 = -0.4
RpL28 + snoRNA:Or-CD12 [DRSC08293] — z-score, replicate 1 = 4.5; z-score, replicate 2 = 4.8
CG13896 [DRSC08366] — z-score, replicate 1 = -0.4; z-score, replicate 2 = -0.6
CG3045 [DRSC04331] — z-score, replicate 1 = -0.4; z-score, replicate 2 = -0.3
CG10466 [DRSC02060] — z-score, replicate 1 = -0.4; z-score, replicate 2 = 0.3
Or47a [DRSC07491] — z-score, replicate 1 = -0.1; z-score, replicate 2 = -0.8

Laid out differently: results already given
gene | dsRNA | z-score, replicate 1 | z-score, replicate 2
CG3045 | DRSC04331 | -0.4 | -0.3
CG10466 | DRSC02060 | -0.4 | 0.3
